For one series, the system named is biotinyl-Trp-oxazolone. As to the kind of experiment: self-aminoacylation, catalytic enhancement (BWO) (fold over background); higher = more active; k-Seq, kA / k0A0; sequences stand for … in GGGAAUGGAUCCACAUCUACGAAUUC…UUCACUGCAGACUUGACGAAGCUG
The method, boiled down:
(§1)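 Mutagenized RNA pools (0.43 μM; 21-nt variable region) were treated with 2–1250 μM of each biotinyl-aminoacyl-oxazolone. Conditions were 50 μL HEPES/NaCl/KCl/MgCl2/CaCl2 buffer, 5% acetonitrile, pH 6.9–7.0, room temperature, 90 minutes. Catalytic enhancement, the median kA relative to the uncatalyzed rate, was derived from streptavidin capture, qPCR and Illumina sequencing.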

A further series deals with biotinyl-Leu-oxazolone. Kind of series: self-aminoacylation, catalytic enhancement (BLO) (fold over background); higher = more active; k-Seq, kA / k0A0; sequences stand for … in GGGAAUGGAUCCACAUCUACGAAUUC…UUCACUGCAGACUUGACGAAGCUG
The method, boiled down: as §1

A further series relates to biotinyl-Val-oxazolone. Kind of series: self-aminoacylation, catalytic enhancement (BVO) (fold over background); higher = more active; k-Seq, kA / k0A0; sequences stand for … in GGGAAUGGAUCCACAUCUACGAAUUC…UUCACUGCAGACUUGACGAAGCUG
The method, boiled down:
as §1

The subject of another series is biotinyl-Ile-oxazolone. As to the kind of experiment: self-aminoacylation, catalytic enhancement (BIO) (fold over background); higher = more active; k-Seq, kA / k0A0; sequences stand for … in GGGAAUGGAUCCACAUCUACGAAUUC…UUCACUGCAGACUUGACGAAGCUG
The procedure, abridged: as §1

Another series has as its system biotinyl-Met-oxazolone. As to the kind of experiment: self-aminoacylation, catalytic enhancement (BMO) (fold over background); higher = more active; k-Seq, kA / k0A0; sequences stand for … in GGGAAUGGAUCCACAUCUACGAAUUC…UUCACUGCAGACUUGACGAAGCUG
The procedure, abridged: as §1

The subject of another series is biotinyl-Phe-oxazolone. As to the kind of experiment: self-aminoacylation, catalytic enhancement (BFO) (fold over background); higher = more active; k-Seq, kA / k0A0; sequences stand for … in GGGAAUGGAUCCACAUCUACGAAUUC…UUCACUGCAGACUUGACGAAGCUG
The procedure, abridged:
as §1

Variants at the floor of the assay are shown more often than the library holds them.

In the case of “CUACAUCAAUCAAUCGGUCUG [Fam1A.1 aminoacylation ribozyme variant]”, the self-aminoacylation with biotinyl-Trp-oxazolone is 1.06; with biotinyl-Leu-oxazolone, 0.551; in the series with biotinyl-Val-oxazolone it was 0.742; with biotinyl-Ile-oxazolone, 0.83; in the series on biotinyl-Met-oxazolone, 0.701; in the series with biotinyl-Phe-oxazolone, 1.58.

As to “AAGUUUGGUAAUUGUCGCAAG [Fam3.1 aminoacylation ribozyme variant]”, the self-aminoacylation in the series with biotinyl-Trp-oxazolone amounted to 1.04; in the series on biotinyl-Leu-oxazolone, 1.14; with biotinyl-Val-oxazolone, 1.08; in the series with biotinyl-Ile-oxazolone, 1.22; with biotinyl-Met-oxazolone, 1.2; in the series on biotinyl-Phe-oxazolone, 1.19.

The values above are taken from the supplement of paper PMC9233669.
